Counter-ions that a name gives are not always drawn. Some of the results follow. Repeats in this data set agree poorly, so a single value says little.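 The human kidney-derived cells carry a stably integrated construct of eight TEAD-binding elements driving luciferase, read by luminescence in a drug-repurposing library screen. A compound counts as a hit when its signal is more than five robust Z scores above the plate mean.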
Test system: HEK293A TEAD-LUC reporter
Assay: TEAD-luciferase reporter activity (YAP activation), robust Z score vs plate; higher = stronger YAP/TEAD activation
Details: 24 h

SMILES	TEAD-luciferase reporter activity (compound concentration: 200 nM)	TEAD-luciferase reporter activity (compound concentration: 2 uM)	TEAD-luciferase reporter activity (compound concentration: 10 uM)
COc1cccc(C(=O)OC2CCN(C)CC2)c1	inactive: -0.725	inactive: 0.465	inactive: 2.24
CN1C(=O)C[C@@H](C(=O)N[C@@H](Cc2cnc[nH]2)C(=O)N2CCC[C@H]2C(N)=O)NC1=O [taltirelin hydrate ODT]	inactive: -1.09	inactive: 0.56	inactive: 1.78
FC(F)C(F)(F)CBr	inactive: 0.603	inactive: 1.67	inactive: -0.752
COc1ccc(S(=O)(=O)N(Cc2cccnc2)[C@@H](C(=O)NO)C(C)C)cc1	inactive: -1.26	inactive: 0.865	inactive: -1.03
CNC(=O)c1cc(COc2nnc(Nc3ccc(Cl)cc3)c3ccoc23)ccn1 [telatinib]	inactive: -0.667	inactive: -2.06	inactive: 0.0736
CCn1c(O)nnc1-c1ccc(Cl)cc1	inactive: -1.27	inactive: -0.291	inactive: 0.472
O=C(NC1CC1)C1CCN(c2nc3ncccc3o2)CC1	inactive: -0.888		inactive: -0.0641
CCCC(CCC)C(=O)NCC(N)=O [Valrocemide]	inactive: -0.666	inactive: 3.09	inactive: -2.14
Cc1c(N2CCc3ccccc3C2)c(N)cc2c(=O)c(C(=O)O)cn(C3CC3)c12	inactive: -0.0347	inactive: -0.649	inactive: -0.456
Cc1ccnc(NS(=O)(=O)c2ccc(N)cc2)n1	inactive: -0.757	inactive: 0.582	inactive: -1.17
O=C(O)c1ccccc1C1c2ccc(O)cc2Oc2cc(O)ccc21 [Fluorescin]	inactive: -1.31	inactive: -0.891	inactive: -1.12
COc1ccc(-c2c(Cl)ncn2-c2ccc(S(N)(=O)=O)cc2)cc1F [Cimicoxib]	inactive: 1.31	inactive: -0.658	inactive: 0.859
[O]=[Mg] [Magnesium oxide]	inactive: -0.683	inactive: -0.285	inactive: 0.777
CC(=O)[C@]1(N)Cc2c(O)c3c(c(O)c2[C@@H](O[C@H]2C[C@H](O)[C@H](O)CO2)C1)C(=O)c1ccccc1C3=O [Amrubicin]	inactive: 0.0322	inactive: 0.149	active: 11.7
NC(=O)c1cnc2[nH]ccc2c1N[C@H]1[C@@H]2CC3C[C@H]1C[C@@](O)(C3)C2 [peficitinib]	inactive: 0.999	active: 14.5	inactive: 4.9
CCN(CC)CCOC(=O)C(c1ccccc1)c1ccccc1	inactive: -0.535	inactive: 0.76	inactive: -0.704
O=C(O)Cc1csc(-c2ccc(Cl)cc2)n1	inactive: -0.723	inactive: -1.3	inactive: -0.0199
CC(=O)NN1CC(C)(C)C(=O)c2ccc(S(=O)(=O)C(F)(F)F)cc21	inactive: 2.23	inactive: -1.32	inactive: -1.58
CC/C=C\C/C=C\C/C=C\C/C=C\C/C=C\C/C=C\CCC(=O)OCCCNC(=O)[C@H](O)C(C)(C)CO	inactive: -1.54	inactive: 1.05	inactive: 0.312

Three records drawn at random from those above:
SMILES	TEAD-luciferase reporter activity (compound concentration: 200 nM)	TEAD-luciferase reporter activity (compound concentration: 2 uM)	TEAD-luciferase reporter activity (compound concentration: 10 uM)
CC(=O)NN1CC(C)(C)C(=O)c2ccc(S(=O)(=O)C(F)(F)F)cc21	inactive: 2.23	inactive: -1.32	inactive: -1.58
CCCC(CCC)C(=O)NCC(N)=O [Valrocemide]	inactive: -0.666	inactive: 3.09	inactive: -2.14
COc1ccc(S(=O)(=O)N(Cc2cccnc2)[C@@H](C(=O)NO)C(C)C)cc1	inactive: -1.26	inactive: 0.865	inactive: -1.03

The results go on.

SMILES	TEAD-luciferase reporter activity (compound concentration: 200 nM)	TEAD-luciferase reporter activity (compound concentration: 2 uM)	TEAD-luciferase reporter activity (compound concentration: 10 uM)
Cn1nc(O[C@@H]2c3cc(S(=O)(=O)c4cccc(O)c4)ccc3OC(C)(C)[C@@]2(C)O)ccc1=O	inactive: -0.443	inactive: -0.0567	inactive: -1.71
CNC(=S)C1(c2cccc(C)n2)CCCS1 (stereo unspecified)	inactive: -0.898	inactive: -0.516	inactive: 0.417
N=C(N)c1ccc(N2CCN(C3CCN(CC(=O)O)CC3)CC2)cc1	inactive: -0.894	inactive: -0.274	inactive: -0.857
CCOC(=O)CC1(c2ccc(OCc3cccc(-c4ccc(OCC5CCS(=O)(=O)CC5)cc4Cl)c3)cc2)COC1	inactive: -0.863	inactive: -0.783	inactive: -1.01
O=C(OCCN1CCN(c2cccc(C(F)(F)F)c2)CC1)c1ccccc1Nc1ccnc2cc(C(F)(F)F)ccc12 [antrafenine]	inactive: 0.12	inactive: -0.525	inactive: -1.75
CN/C(=C/[N+](=O)[O-])NCCSCc1ccc(CN(C)C)o1 [ranitidine bismuth citrate]	inactive: -0.293	inactive: -1.5	inactive: 2.23
COc1ccnc(CS(=O)c2nc3cc(-n4cccc4)ccc3[nH]2)c1C (stereo unspecified) [ilaprazole]	inactive: -0.395	inactive: -0.717	inactive: 0.465
C1C[S][Bi-]2([S]1)[S]CC[S]2 [Bismuth ethanedithiol]	inactive: 0.0392	inactive: 2.31	inactive: 1.33
CN1C/C=C/CCOc2cccc(c2)-c2ccnc(n2)Nc2cccc(c2)C1	inactive: -1.07	inactive: -3.74	inactive: -2
Cc1cccc(N(C)C(=S)Oc2ccc3c(c2)C2CCC3C2)c1 (stereo unspecified) [tolciclate]	inactive: -1.5	inactive: 1.73	inactive: -0.904
O=C(NOCCO)c1cc(CN2OCCCC2=O)c(F)c(F)c1Nc1ccc(I)cc1F	inactive: 0.122	inactive: 2.4	inactive: -0.533
CN(C)C(=O)c1c[nH]c2cccnc12	active: 8.64		inactive: -3.03
CC(C)OCCN(C(=O)CCl)c1ccc(C(=O)N2CCN(CCc3ccc(Cl)cc3)CC2)cc1	inactive: -1.12	inactive: -1.36	inactive: 0.773
CCCCC(CC)CN1CN(CC(CC)CCCC)CC(C)(N)C1 (stereo unspecified)	inactive: 0.039	inactive: -0.68	inactive: 0.245
CC(=O)N1CCN(NC(=O)c2ccc(F)cc2)CC1	inactive: -0.817	inactive: -0.49	inactive: -0.45
O=C(NC(Cc1c[nH]c2ccccc12)C(=O)O)c1ccc(Cl)cc1 (stereo unspecified) [benzotript]	inactive: -1.86	inactive: -1.12	inactive: -1.27
CC(C)[C@H](NC(=O)c1ccc2ccccc2n1)C(=O)N[C@@H](Cc1ccccc1)[C@H](O)CN1CC[C@@H](OCc2ccncc2)C[C@H]1C(=O)NC(C)(C)C	inactive: -0.526	inactive: 0.0697	inactive: -0.443
CCCCCCCCCCCCCCN(C(=O)CCCCCCCCCCC)[C@@H]1O[C@H](CO)[C@@H](O)[C@H](O)[C@H]1NC(=O)CN	inactive: -1.41	inactive: -2.17	inactive: -0.413
OB(O)O	inactive: -1.26	inactive: 1.23	inactive: 0.493

SMILES	TEAD-luciferase reporter activity (compound concentration: 200 nM)	TEAD-luciferase reporter activity (compound concentration: 2 uM)	TEAD-luciferase reporter activity (compound concentration: 10 uM)
CCCc1c(O)ccc2c(=O)cc(C(=O)O)oc12	inactive: -2.38	inactive: 0.22	inactive: -0.452
O=C1CC2(CCCC2)CC(=O)N1CCCCN1CCN(c2nsc3ccccc23)CC1 [Tiospirone hydrochloride]	inactive: -0.0973	inactive: 0.388	inactive: 0.442
CC(O)CC(=O)[O-] (stereo not drawn) [beta-Hydroxybutyrate]	inactive: -0.512	inactive: -1.97	inactive: 0.141
CN1C(=O)OC(C)(C)C1=O [Trimethadione]	inactive: -1.8	inactive: -0.246	inactive: -1.32
Cc1cn([C@H]2C[C@H](O)[C@]3(CO)C[C@H]23)c(=O)[nH]c1=O [North-methanocarbathymidine]	inactive: -1.07	inactive: -0.594	inactive: 1.45
C=C1/C(=C\C=C2/CCC[C@]3(C)[C@@H]([C@H](C)CCCC(C)(C)O)CC[C@@H]23)C[C@@H](O)[C@@H](OCCCO)[C@@H]1O [Edirol]	inactive: 0.487	inactive: 0.805	inactive: 0.0903
Nc1nc(N)c2ncn(CC(CF)OCP(=O)(O)O)c2n1 (stereo unspecified)	inactive: 0.527	inactive: -0.878	inactive: -0.258
O.O=[Si]=O.O=[Si]=O.O=[Si]=O.O=[Si]=O.[O]=[Mg].[O]=[Mg].[O]=[Mg]	inactive: -1.4		inactive: 0.11
CC/C(=C(/CC)c1ccc(O)cc1)c1ccc(O)cc1 [Diethylstilbestrol]	inactive: 0.862	inactive: 1.37	inactive: -0.387
C[C@@H](NC(=O)c1ncnc(N)c1Cl)c1ncc(C(=O)Nc2cc(C(F)(F)F)c(Cl)cn2)s1	inactive: -1.38	inactive: -2	inactive: -1.98
CC1(C)c2nc(-c3ccc(F)cc3)c(Nc3ccc(Cl)cc3)n2CCN1C(=O)CN	inactive: -1.45	inactive: -0.837	inactive: 4.41
C[C@H](NCc1ccc(OCc2cccc(F)c2)cc1)C(N)=O [safinamide mesylate]	inactive: -0.461	inactive: 3.18	inactive: 0.712
N#Cc1ccc(CN2CCC(N3Cc4ccccc4C3=O)CC2)cc1	inactive: -1.75		active: 6.39
Cc1cc(Nc2cc(CN3CCOCC3)c3nc(C)c(Cc4ccc(Cl)cc4F)n3n2)[nH]n1 [gandotinib]	inactive: -2.13	inactive: -2.54	inactive: -1.9
CC(C(=O)O)c1ccc(C2CCCCC2)cc1 (stereo unspecified) [hexaprofen]	inactive: 0.378	inactive: -1.63	inactive: 0.445
N[C@@H](Cc1cc(I)c(Oc2ccc(O)c(I)c2)c(I)c1)C(=O)O [liothyronine sodium]		inactive: -1.68	
N[C@@H](Cc1cc(I)c(Oc2ccc(O)c(I)c2)c(I)c1)C(=O)O [Liothyrionine]	inactive: 0.236		inactive: -1.52
O=C(NS(=O)(=O)c1ccc(Cl)cc1)c1ccc(Cl)cc1Cl	inactive: 0.681	inactive: 0.396	inactive: 0.0535
